PubChem BioAssay AID1259308, NCATS, 2017
This is a random part of about 59,000 reagents tested. In the full data, about 1,510 (2.6%) were called active. 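Calls use total luciferase alone and ignore viability, so some active siRNAs may act by altering cell number.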 Reagents against one gene are numbered here.

- Screen: 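Candidate targets for better recombinant protein yield in mammalian cells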 (primary screen)
- Cell system: human HEK293 embryonic kidney cells stably expressing firefly luciferase (HEK-CMV-Luc2-Hygro)
- Knock-down reagent: single siRNA against human genes, 0.8 pmol siRNA per well
- Time to read-out: 72 h
- Measurement: 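Reporter luminescence and viable-cell signal on separate replicate plates, given as percent of non-targeting control and median/MAD z-scores, plus per-cell luciferase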
- Direction: total luciferase, z-score and total luciferase, % of control: higher = more reporter protein produced; luciferase per cell, z-score: higher = more reporter output per viable cell; viable cells, % of control: higher = more viable cells
- Active means: 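An siRNA counts as active if its total luciferase robust z-score exceeds 3; genes with two or more such siRNAs out of three were retested with fresh siRNAs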
- Calls: active = raised luciferase; inactive = no rise

gene	reagent no.	total luciferase, z-score	total luciferase, % of control	luciferase per cell, z-score	viable cells, % of control	activity call
OR2T29 (GeneID 343563)	1	5.84	198	4.08	75.5	active
OR2T29 (GeneID 343563)	2	-0.167	78.6	-0.234	93.4	inactive
OR2T29 (GeneID 343563)	3	2.47	131	3.27	61.9	inactive
GSTZ1 (GeneID 2954)	1	1.53	112	0.768	102	inactive
GSTZ1 (GeneID 2954)	2	1.27	107	2.71	58.6	inactive
GSTZ1 (GeneID 2954)	3	1.6	114	1.19	92.9	inactive
CLEC3A (GeneID 10143)	1	1.16	105	3.65	44.9	inactive
CLEC3A (GeneID 10143)	2	0.835	98.5	1.65	71.3	inactive
CLEC3A (GeneID 10143)	3	0.639	94.6	1.31	74.9	inactive
SPRR1A (GeneID 6698)	1	-2.52	31.8	-2.68	72.1	inactive
SPRR1A (GeneID 6698)	2	-0.244	77	-0.359	94.6	inactive
SPRR1A (GeneID 6698)	3	2.27	127	1.81	88.2	inactive
SMIM22 (GeneID 440335)	1	-1.51	51.8	-1.4	83.7	inactive
SMIM22 (GeneID 440335)	2	-1.32	55.7	-1.36	89	inactive
SMIM22 (GeneID 440335)	3	-2.03	41.6	-1.63	71.4	inactive
PATZ1 (GeneID 23598)	1	1.03	102	0.619	97.1	inactive
PATZ1 (GeneID 23598)	2	0.337	88.6	0.324	90.9	inactive
PATZ1 (GeneID 23598)	3	-0.752	66.9	-0.335	81.7	inactive
EML1 (GeneID 2009)	1	-0.247	77	-0.581	100	inactive
EML1 (GeneID 2009)	2	3.88	159	3.13	78.1	active
EML1 (GeneID 2009)	3	1.35	109	1.01	93.2	inactive
FBXW12 (GeneID 285231)	1	-2.58	30.5	-1.99	57.6	inactive
FBXW12 (GeneID 285231)	2	0.689	95.6	0.906	84.1	inactive
FBXW12 (GeneID 285231)	3	1.1	104	1.13	86	inactive
ALG11 (GeneID 440138)	1	-0.785	66.3	-1.4	107	inactive
ALG11 (GeneID 440138)	2	-0.67	68.6	-1.02	100	inactive
ALG11 (GeneID 440138)	3	-0.179	78.3	0.396	78.9	inactive
ANK2 (GeneID 287)	1	0.531	92.4	0.00696	103	inactive
ANK2 (GeneID 287)	2	-0.751	67	-0.923	95.4	inactive
ANK2 (GeneID 287)	3	1.5	112	0.997	95.9	inactive
INSIG2 (GeneID 51141)	1	-0.42	73.5	-1.08	109	inactive
INSIG2 (GeneID 51141)	2	-0.405	73.8	-0.227	87.6	inactive
INSIG2 (GeneID 51141)	3	-0.124	79.4	-0.488	101	inactive
HSPA1L (GeneID 3305)	1	0.755	96.9	2.05	63.2	inactive
HSPA1L (GeneID 3305)	2	-1.36	54.9	-0.355	67.3	inactive
HSPA1L (GeneID 3305)	3	0.304	87.9	0.456	87.1	inactive
DNAJB13 (GeneID 374407)	1	-2.07	40.7	-2.16	80.4	inactive
DNAJB13 (GeneID 374407)	2	1.71	116	1.3	92.1	inactive
DNAJB13 (GeneID 374407)	3	-0.919	63.6	-0.412	79.2	inactive
PGAP1 (GeneID 80055)	1	-2.1	40	-1.63	68.7	inactive
PGAP1 (GeneID 80055)	2	-0.77	66.6	-0.768	91.1	inactive
PGAP1 (GeneID 80055)	3	1.21	106	1.55	78.7	inactive
SUMO4 (GeneID 387082)	1	2.16	125	1.59	91.7	inactive
SUMO4 (GeneID 387082)	2	-0.41	73.7	-0.338	90.1	inactive
SUMO4 (GeneID 387082)	3	-0.185	78.2	0.0519	86.2	inactive
SIRT3 (GeneID 23410)	1	-0.223	77.5	0.317	79.6	inactive
SIRT3 (GeneID 23410)	2	-0.331	75.3	-0.819	104	inactive
SIRT3 (GeneID 23410)	3	0.27	87.3	0.773	79.5	inactive
IDH3A (GeneID 3419)	1	0.0158	82.2	-0.219	97.3	inactive
IDH3A (GeneID 3419)	2	0.563	93.1	0.0685	102	inactive
IDH3A (GeneID 3419)	3	-0.855	64.9	-0.592	84.7	inactive
SLC38A11 (GeneID 151258)	1	-0.23	77.3	-0.0888	88.4	inactive
SLC38A11 (GeneID 151258)	2	2.44	130	1.68	93.7	inactive
SLC38A11 (GeneID 151258)	3	0.0515	82.9	-0.559	107	inactive
YPEL5 (GeneID 51646)	1	-2.84	25.5	-2.72	58.2	inactive
YPEL5 (GeneID 51646)	2	0.531	92.4	-0.281	111	inactive
YPEL5 (GeneID 51646)	3	0.38	89.4	-0.251	107	inactive
